{
  "source": "patent US20210181182A1",
  "about": "“METHOD FOR IDENTIFICATION OF PERTURBAGENS OF PARTICULAR BIOLOGICAL PROCESSES AND CELL SYSTEMS WITHIN LIVING CELLS” (priority 2018, published 2021)",
  "tested_on": "mitochondrial electron transport chain (mETC)",
  "experiment": "FACTORIAL assay: similarity of TFAP to the consensus (invariant) mETC TFAP",
  "assay_type": "cell-based, human",
  "conditions": "24 h",
  "data": [
    {"smiles": "CCOC(=O)N1CCC(=C2c3ccc(Cl)cc3CCc3cccnc32)CC1", "note": "[Loratadine, reference compound]", "values": [
      {"measurement": "Pearson correlation with the mETC TFAP, r", "result": 0.814}
    ]}
  ]
}
